Measurements reported in PMC10199097, “Molecular mechanism of hyperactivation conferred by a truncation of TRPA1” (Nature Communications, 2023).

Chains of the proteins cited; added tags and fusions are not shown. Lines headed by an entry give the natural chain unless they say otherwise; changes in a name come on top.
UniProt O75762: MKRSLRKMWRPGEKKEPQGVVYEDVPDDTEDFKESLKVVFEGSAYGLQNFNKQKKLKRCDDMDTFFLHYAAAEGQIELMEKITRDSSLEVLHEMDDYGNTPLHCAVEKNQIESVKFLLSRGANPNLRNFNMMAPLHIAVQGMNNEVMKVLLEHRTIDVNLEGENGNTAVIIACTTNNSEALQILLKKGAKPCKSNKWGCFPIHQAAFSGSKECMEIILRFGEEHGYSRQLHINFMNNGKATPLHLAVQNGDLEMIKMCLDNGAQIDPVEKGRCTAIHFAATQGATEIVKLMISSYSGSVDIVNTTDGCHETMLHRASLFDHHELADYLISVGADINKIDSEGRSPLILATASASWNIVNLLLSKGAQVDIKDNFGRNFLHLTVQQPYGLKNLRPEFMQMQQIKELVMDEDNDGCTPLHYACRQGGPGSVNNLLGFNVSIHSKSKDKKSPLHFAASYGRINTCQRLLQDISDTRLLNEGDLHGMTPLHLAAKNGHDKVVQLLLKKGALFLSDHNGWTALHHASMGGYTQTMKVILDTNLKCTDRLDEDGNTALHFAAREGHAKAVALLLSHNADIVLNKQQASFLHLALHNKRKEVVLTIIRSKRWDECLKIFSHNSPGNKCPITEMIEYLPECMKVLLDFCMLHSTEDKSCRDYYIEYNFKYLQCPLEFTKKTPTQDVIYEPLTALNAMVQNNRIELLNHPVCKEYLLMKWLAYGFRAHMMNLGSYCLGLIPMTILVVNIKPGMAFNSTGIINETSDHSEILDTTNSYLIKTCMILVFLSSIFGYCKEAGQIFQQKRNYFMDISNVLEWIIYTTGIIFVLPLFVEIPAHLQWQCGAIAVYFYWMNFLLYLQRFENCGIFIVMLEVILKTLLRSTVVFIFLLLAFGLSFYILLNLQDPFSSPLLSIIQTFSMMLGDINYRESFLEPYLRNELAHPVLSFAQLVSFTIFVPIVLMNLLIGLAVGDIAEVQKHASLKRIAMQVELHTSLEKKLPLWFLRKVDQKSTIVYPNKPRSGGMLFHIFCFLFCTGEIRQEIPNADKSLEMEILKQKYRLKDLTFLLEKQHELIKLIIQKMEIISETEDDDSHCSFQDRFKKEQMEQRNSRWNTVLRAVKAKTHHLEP

Target: wild type (WT) human TRPA1 (Transient Receptor Potential Ankyrin subtype 1) (human) (UniProt O75762)
Test: proximity labelling; BioID2-fused protein co-expressed with 3×FLAG-tagged protein in cells; biotinylated proteins precipitated with Neutravidin resin and probed with anti-FLAG antibody

Row | binding | Substance
1 | binds | R919* human TRPA1 mutant (CRAMPT syndrome truncation) (from UniProt O75762 1-918) (domain or fragment)
2 | binds | wild type (WT) human TRPA1 (Transient Receptor Potential Ankyrin subtype 1) (from UniProt O75762 1-1119)

Results are given in words; binding and its absence hold for the method and conditions named. Binding seen in cells or lysates may run through a third protein. A yes stands for co-enrichment or nearness to the bait. Other partners may have been found.
